For 1 molecule, binding results are on record in publication PMC6179962, “POLE3-POLE4 Is a Histone H3-H4 Chaperone that Maintains Chromatin Integrity during DNA Replication” (Molecular Cell, 2018).

The chains behind the UniProt entries cited, without tags or fusion partners. Where a name states a change or a piece, a line headed by the entry shows the natural chain unless it says otherwise.
UniProt Q9NRF9: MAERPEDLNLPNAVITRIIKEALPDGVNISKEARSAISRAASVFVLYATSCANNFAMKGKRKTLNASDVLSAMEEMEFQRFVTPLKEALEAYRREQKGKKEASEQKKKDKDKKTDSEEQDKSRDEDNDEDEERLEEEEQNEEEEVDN

No constants are given. Whether binding was seen depends on the method and setting. In cells and extracts the contact can be indirect. Binding can be weak; no strength is given.

In the assay the target is FLAG-tagged POLE3ΔC (human) (UniProt Q9NRF9). Briefly: co-IP; POLE3ΔC-expressing HeLa TRex cells (Figure S6H); fraction not told.

B1: endogenous POLE4 (protein, UniProt Q9NR33 1-117)
chain: MAAAAAAGSGTPREEEGPAGEAAASQPQAPTSVPGARLSRLPLARVKALVKADPDVTLAGQEAIFILARAAELFVETIAKDAYCCAQQGKRKTLQRRDLDNAIEAVDEFAFLEGTLD
Turning to B1, the binding result is “binds”.
